From patent publication US20050032124A1, “Identification of genotype-selective agents for treating Huntington's disease” (priority 2003, published 2005)

tested on: BJ-TERT/LT/ST/RAS^V12 tumorigenic cells; assay: Calcein AM viability assay, dilution-series retest; type: cell-based, human; conditions: from selectivity ratio for each subsequent pair of cell lines in a series
Procedure: Described here is work carried out to identify compounds with increased potency or activity in the presence of hTERT, LT, ST, E6, E7 or RAS^V12. […] The primary screen tested (in quadruplicate) the effect of treating tumorigenic BJ-TERT/LT/ST/RAS^V12 engineered tumorigenic cells with each compound for 48 hours at a concentration of 4 μg/mL, corresponding to 10 μM for a compound with a molecular weight of 400, which is the approximate median molecular weight of the libraries. Cell viability was measured using the dye calcein acetoxymethyl ester (calcein AM) (Wang et al., 1993, Hum. Immunol. 3 7, 264-270), which is a non-fluorescent compound that freely diffuses into cells. In live cells, calcein AM is cleaved by intracellular esterases, forming the anionic fluorescent derivative calcein, which cannot diffuse out of live cells. […] The IC50 value (concentration required to inhibit 50% of the calcein AM signal) was calculated for each compound in each cell line (Table 1).
Calcein acetoxylmethyl ester (AM) is a cell membrane-permeable, non-fluorescent compound that is cleaved by intracellular esterases to form the anionic, cell-impermeable, fluorescent compound calcein. Viable cells are stained by calcein because of the presence of intracellular esterases and because the intact plasma membrane prevents fluorescent calcein from leaking out of cells (Wang et al., 1993, supra). Cells were seeded in 384-well plates using a Zymark Sciclone ALH, treated with each compound in triplicate at 4 μg/mL in the primary screen for two days, washed with phosphate-buffered saline on a Packard Minitrak with a 384-well washer and incubated for four hours with 0.7 μg/mL calcein (Molecular Probes). Total fluorescence intensity in each well was recorded on a Packard Fusion platereader, and converted to a percent inhibition of signal by subtracting the instrument background and dividing by the average signal obtained when cells were not treated with any compound.
Replica daughter plates were prepared with a Zymark Sciclone ALH and integrated Twister II by diluting stock plates 50 fold in medium lacking serum and pen/strep to obtain a compound concentration in daughter plates of 80 μg/ml with 2% DMSO. Assay plates were prepared by seeding cells in black, clear bottom 384-well plates in columns 1-23 (6000 cells/well in 57 μl) using a syringe bulk dispenser. Columns 3-22 were treated with compounds from a daughter library plate by transferring 3 μl from the daughter library plate using 384-position fixed cannula array. The final compound concentrations in assay plates were thus 4 μg/ml. The assay plates were incubated for 48 hours at 37° C. in humidified incubator containing 5% CO2. Plate processing for the calcein AM viability assay was performed using an integrated Minitrak/Sidetrak robotic system from Packard Bioscience (Perkin Elmer). Assay plates were washed with phosphate buffered saline, and 20 μl of calcein AM (0.7 μg/ml) per well was added. Plates were incubated at room temperature for 4 hours. Fluorescence intensity was determined using a Fusion platereader with filters centered on an excitation of 485 nm and an emission of 535 nm.
Compounds to be retested were purchased from manufacturers. Stocks were prepared in DMSO at a concentration of 1 mg/ml in 384-well polypropylene plates with a 16-point, two-fold dilution dose curve of each compound in a column, in duplicates. Column 1-2 and 23-24 were left empty for controls. Daughter retest plates were prepared from stock retest plate by diluting 66.6 fold in DMEM in 384-well deep-deep well plates (4.5 μl transfer into 300 μl). Cells were seeded at a density of 6000 per well in 40 μl, and 20 μl was added from a daughter retest plate. The plates were incubated for two days at 37° C. with 5% CO2.

Compound | Genetic basis of Selectivity
CS[C@H]1SC[C@H]2C(=O)N(C)[C@@H](C(C)C)C(=O)OC[C@@H](NC(=O)c3cnc4ccccc4n3)C(=O)N[C@@H](C)C(=O)N(C)[C@@H]1C(=O)N(C)[C@@H](C(C)C)C(=O)OC[C@@H](NC(=O)c1cnc3ccccc3n1)C(=O)N[C@@H](C)C(=O)N2C [Echinomycin] | non-specific
COc1ccc(C[C@H]2C(=O)N[C@@H](C)C(=O)N(C)[C@@H]3C(=O)N(C)[C@@H](Cc4ccc(O)c(c4)Oc4ccc(cc4)[C@@H]3O)C(=O)N[C@H](C)C(=O)N[C@@H](C)C(=O)N2C)cc1 [Bouvardin] | non-specific
COc1cccc2c1C(=O)c1c(O)c3c(c(O)c1C2=O)C[C@@](O)(C(C)=O)C[C@@H]3O[C@H]1C[C@H](N)[C@H](O)[C@H](C)O1 [Daunorubicin] | TERT/RB
Cc1c2ccccc2c(CSC(=N)N)c2ccccc12.Cl [NSC146109] | non-specitic
COc1cccc2c1C(=O)c1c(O)c3c(c(O)c1C2=O)C[C@@](O)(C(=O)CO)C[C@@H]3O[C@H]1C[C@H](N)[C@H](O)[C@H](C)O1 [Doxorubicin] | TERT/RB
O=C1c2c(O)ccc(O)c2C(=O)c2c(NCCNCCO)ccc(NCCNCCO)c21 [Mitoxantrone] | TERT/RB
CC[C@@]1(O)C(=O)OCc2c1cc1n(c2=O)Cc2cc3ccccc3nc2-1 [Camptothecin] | RAS^V12/PP2A/RB
NC(=O)c1cn([C@@H]2O[C@H](CO)[C@@H](O)[C@H]2O)c2ncnc(N)c12 [Sangivamycin] | non-specific
